Measured values taken from PubChem BioAssay AID540276 (National Center for Advancing Translational Sciences (NCATS), 2011).
“And” between values parts separate entries of the source, which are not always exact repeats. Equal values may be shown once. About 5,400 (1.8%) of roughly 300,000 compounds were called active. This list was built around the results that the source calls inconclusive (neither active nor inactive); the mix of calls is not that of the screen. The call rests on the fitted dose curve; tested in HEK293 cells. A potency beside an inconclusive call is a rough fit, not a confirmed value. A structure can be active in one record and inactive in another.
Potency means the concentration at half of the fitted maximal effect.

Experiment: qHTS for inhibitors of binding or entry into cells for Marburg Virus
Conditions: Marburg virus pseudotyped entry inhibition, cell reporter; series mostly up to 37.8 µM
In the case of `CCOC(=O)COc1ccc2nsnc2c1`, the Potency is reported as “inactive”.
With `C/C(=N\NC(=O)c1cc(-c2ccc(Cl)s2)[nH]n1)c1ccncc1` the Potency was inconclusive: 28.2 µM [inhibitor, partial curve, poor fit].
In the case of `CC(Cn1cnc2ccccc21)C(=O)O` (stereo not drawn), the Potency is reported as “inactive”.
For `Cc1ccc(NC(=O)c2cc3c(s2)CCCC3)cc1S(=O)(=O)Nc1ccccc1Cl`, the Potency was inconclusive: 10 µM [inhibitor, partial curve, poor fit].
For `COc1ccc(NS(=O)(=O)c2ccc3c(c2)OCCO3)cc1OC`, the Potency was inconclusive: 4.47 µM [inhibitor, full curve, poor fit].
In the case of `COc1ccc2nc(NC(=O)c3ccc(NC(=O)C4CCCO4)cc3)sc2c1` (stereo not drawn), the Potency is reported as inconclusive: 0.316 µM [activator, full curve, poor fit].
With `CCS(=O)(=O)c1ncc(N(Cc2ccccc2)Cc2ccco2)c(C(=O)Nc2ccccc2C)n1` the Potency was “inactive”.
For `CN(C)c1cc[n+](CC(=O)Nc2ccc(Oc3ccccc3)cc2)cc1`, the Potency was active: 9.2 µM.
For `Cc1cccc(C(=O)NNC(=O)c2ccccc2)c1`, the Potency was inconclusive: 22.4 µM [activator, partial curve, poor fit].
With `CCc1nnc(NC(=O)c2cc(C)oc2C)s1` the Potency was “inactive”.
With `CC(=O)C1C(c2ccc(F)cc2)c2c(noc2C)CC1(C)O` (stereo not drawn) the Potency was inconclusive: 6.31 µM [inhibitor, single point].
In the case of `Cn1c(SCc2ccc(Cl)cc2)nnc1C1CC1`, the Potency is reported as “inactive”.
For `Cc1ccc(C)c(NC(=O)c2nc(S(=O)(=O)Cc3ccc(F)cc3)ncc2Cl)c1`, the Potency was “inactive”.
With `Cc1ccsc1C(=O)OCc1csc(-c2ccccc2)n1` the Potency was inconclusive: 22.4 µM [inhibitor, partial curve, poor fit].
With `Nc1ccc(S(=O)(=O)Nc2nccs2)cc1N=Nc1ccccc1[N+](=O)[O-]` the Potency was “inactive”.
In the case of `COc1cccc(C2C(C(=O)Nc3nc4ccccc4s3)=C(C)NC3=C2C(=O)CC(C)(C)C3)c1OC` (stereo not drawn), the Potency is reported as inconclusive: 11.2 µM [inhibitor, partial curve, poor fit].
In the case of `Cc1ccccc1NC(=O)Cn1nc(C)c2ccccc2c1=O`, the Potency is reported as inconclusive: 0.158 µM [inhibitor, full curve, poor fit].
With `CCN(CC)c1ccc(NC(=O)c2ccc(S(=O)(=O)N3CCOCC3)cc2)cc1` the Potency was “inactive”.
In the case of `CC1Cc2cc(S(=O)(=O)N3CCC(C(=O)NCc4ccco4)CC3)ccc2N1C(=O)C1CCC1` (stereo not drawn), the Potency is reported as active: 12.6 µM.
In the case of `CCOc1ccc(S(=O)(=O)N(CC(=O)NC2CCCC2)c2ccc(F)cc2)cc1`, the Potency is reported as inconclusive: 25.1 µM [inhibitor, single point].
For `O=C(NCCCN1CCCC1=O)c1ccc2c(=O)n(-c3ccccc3F)c(=S)[nH]c2c1`, the Potency was “inactive”.
With `COc1ccc(NC(=O)/C(C#N)=C\c2ccc(OCc3ccc(C(=O)O)cc3)c(OC)c2)cc1` the Potency was inconclusive: 11.2 µM [activator, single point].
With `Brc1ccccc1-c1csnn1` the Potency was inconclusive: 7.94 µM [activator, partial curve, poor fit].
For `CCc1nnc2c3ccccc3nc(Nc3cc(C)cc(C)c3)n12`, the Potency was inconclusive: 35.5 µM [inhibitor, single point].
For `COc1ccc(CCNC2CC(=O)N(CCc3ccc(OC)c(OC)c3)C2=O)cc1OC` (stereo not drawn), the Potency was “inactive”.
With `O=C(COC(=O)c1ccc(Br)o1)Nc1ccc2c(c1)OCCO2` the Potency was inconclusive: 3.16 µM [inhibitor, single point].
For `COc1ccc(CN=Cc2[nH]c3ccc(Br)c(Cl)c3c2O)cc1`, the Potency was inconclusive: 23.1 µM [inhibitor, single point].
With `O=c1[nH]c(C2CCN(S(=O)(=O)c3ccccc3C(F)(F)F)CC2)nc2c1nnn2Cc1cccc(F)c1` the Potency was inconclusive: 35.5 µM [inhibitor, single point].
In the case of `O=CNc1ccc2c(c1)Cc1cc([N+](=O)[O-])ccc1-2`, the Potency is reported as inconclusive: 5.62 µM [inhibitor, single point].
With `Cc1cc(C(=O)N/N=C/c2cc(Cl)cc([N+](=O)[O-])c2O)n[nH]1` the Potency was inconclusive: 8.91 µM [activator, partial curve, poor fit].
In the case of `CC(C)(C)c1ccc(C2(C)NC(=O)N(CC(=O)NC3CCS(=O)(=O)C3)C2=O)cc1` (stereo not drawn), the Potency is reported as inconclusive: 5.62 µM [inhibitor, single point].
For `Cc1ccc(-c2nn(CC(=O)NCc3cc(-c4nn(C)c(=O)c5ccccc45)ccc3C)c(=O)c3ccccc23)cc1`, the Potency was “inactive and active: 3.16 µM”.
For `Cc1ccc(S(=O)(=O)N2CCC(=O)N(C(COCc3ccc(Cl)c(Cl)c3)Cc3ccccc3)CC2)cc1` (stereo not drawn), the Potency was “inactive”.
In the case of `C=C1C2C[C@H](O)C(C)(C)[C@@]2(O)[C@H](O)C[C@]23C[C@@](C)(O)[C@H](CC[C@H]12)[C@H]3OC(C)=O` (stereo partly drawn), the Potency is reported as “inactive”.
For `CCOc1ccc(NC(=O)c2nc(S(=O)(=O)Cc3ccccc3F)ncc2Cl)cc1`, the Potency was inconclusive: 35.5 µM [inhibitor, partial curve, poor fit].
For `Clc1ccccc1-c1nn2c(-c3ccccn3)nnc2s1`, the Potency was inconclusive: 9.2 µM [activator, single point].
With `COc1ccc(CNC(=O)c2cccs2)cc1` the Potency was “inactive”.
With `CC(O)C(O)C(O)C(O)C1NCCS1` (stereo not drawn) the Potency was inconclusive: 3.16 µM [activator, partial curve, poor fit].
With `N#C/C(=C\c1ccc(N2CCOCC2)o1)c1nc2ccccc2[nH]1` the Potency was inconclusive: 11.2 µM [inhibitor, partial curve, poor fit].
For `Nc1ccc(-n2c(N)c(C(=O)NCc3ccc4c(c3)OCO4)c3nc4ccccc4nc32)cc1`, the Potency was inconclusive: 35.5 µM [inhibitor, single point].
For `COC(=O)Nc1nnc(-c2ccc(OC)cc2)s1`, the Potency was inconclusive: 1 µM [activator, full curve, poor fit].
For `COCCn1c(SC(C)C(=O)Nc2ccc3c(c2)OCCO3)nc2ccccc2c1=O` (stereo not drawn), the Potency was “inactive”.
In the case of `CCC(=O)Nc1ccnc(-c2cccnc2)n1`, the Potency is reported as inconclusive: 0.651 µM [inhibitor, single point].
